The record followed here is PMC4980808.

For the assay, the target named is T1, ZIP6, mouse (bait of the affinity capture) (mouse (endogenous in NMuMG)) (UniProt Q8C145).
T1 sequence: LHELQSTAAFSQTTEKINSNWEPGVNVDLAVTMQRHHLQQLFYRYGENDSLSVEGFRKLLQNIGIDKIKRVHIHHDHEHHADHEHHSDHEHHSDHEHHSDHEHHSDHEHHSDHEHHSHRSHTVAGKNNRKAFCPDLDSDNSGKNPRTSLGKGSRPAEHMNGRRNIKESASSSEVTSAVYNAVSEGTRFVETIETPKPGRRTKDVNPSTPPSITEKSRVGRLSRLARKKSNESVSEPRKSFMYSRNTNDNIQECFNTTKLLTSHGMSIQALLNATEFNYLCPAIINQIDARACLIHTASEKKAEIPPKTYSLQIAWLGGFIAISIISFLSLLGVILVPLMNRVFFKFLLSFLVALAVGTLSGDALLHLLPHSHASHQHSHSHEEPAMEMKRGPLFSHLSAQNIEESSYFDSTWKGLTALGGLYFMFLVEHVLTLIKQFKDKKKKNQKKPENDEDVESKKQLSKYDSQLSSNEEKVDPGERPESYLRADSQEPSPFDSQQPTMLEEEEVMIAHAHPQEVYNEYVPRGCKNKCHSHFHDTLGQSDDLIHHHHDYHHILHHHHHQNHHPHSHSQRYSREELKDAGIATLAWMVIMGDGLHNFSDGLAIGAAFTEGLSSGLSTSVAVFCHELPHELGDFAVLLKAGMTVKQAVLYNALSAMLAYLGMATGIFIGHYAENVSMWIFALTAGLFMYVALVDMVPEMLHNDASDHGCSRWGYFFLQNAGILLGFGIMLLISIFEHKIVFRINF
Nature of the assay: affinity purification with mass spectrometry; wild-type or ZIP6 knockout NMuMG cells cross-linked in vivo with 1% formaldehyde, lysed in 1% NP-40 buffer; capture on anti-ZIP6 antibodies on Protein A agarose; six-plex TMT quantification.

These are yes or no findings as the source states them, for the method shown. Binding seen in cells or lysates may run through a third protein. Here binding means that the protein was enriched with, or labelled near, the bait; the list need not be complete.

B1: ZIP10, mouse (protein, UniProt Q6P5F6 26-833)
chain: HEDHDHGPEELHRHHRGMTESESSKFSVQDAENEKKYYIEKLFDRYGENGRLSFFGLEKLLTNLGLGEIKVVEINHEDLGHDHVSHLDILAVQEGKHFHSHTHQHFHNHLNAENHTTTSVTSKRNHKCDPEKEAAELPIKADDKHLHDRNHRFHHRHRLHHHLDHNTTRHVHNDSVAHSEHGEPGHSPSPETNKTQEQSEVKSVKVRRKEKGKRKKENSEVNTPGFLPNHDHSEQYEHNRVHKLDRVHSPGHPHAHLPEHSGHELGHGHQELDPDNEGELRHTRKREAPHVRKSAIYSTPSHKDQSEDDRQHECLNVTQLLKHFGLGPNSPISPDLFTYLCPALLYQIDSRLCIEHFDKLLVEDLNKDKTLVPEDKTNIGASAWICGIISITVISLLSLLGVILVPIINQGCFKFLLTFLVALAVGTMSGDALLHLLPHSQGGHDHSHQHTHGHGHSHGHESKEFLEEYDAVLKGLVALGGIYLLFIIEHCIRMFKHYKQQRGKQKWFMKQSTEESTIGRKLSDHKLNSTPDADWLQLKPLAGTDDSVVSEDRLNETELTDLEAQQESPPKNYLGVEEEKIMDHSHSDGLHTIHEHEVHVTSHNHHDEDKAVLRKHSHQWHHRHAHHSHGPCHSGSDLKETGIANIAWMVIMGDGIHNFSDGLAIGAAFSAGLTGGISTSIAVFCHELPHELGDFAVLLKAGMTVKQAIVYNLLSAMMAYIGMLIGTAVGQYANNITLWIFAITAGMFLYVALVDMLPEMLHGDGDHEEHGFCPVGQFILQNLGLLFGFAIMLVIALYEDKIVFDIQF
On to B1, for which the binding result is recorded as “binds”.
